Data as given in paper doi:10.1101/2021.05.09.443321.
Where two headings read alike, the source gives them in different places. Results are given in words; binding and its absence hold for the method and conditions named. In cells and extracts the contact can be indirect. Here binding means that the protein was enriched with, or labelled near, the bait; the list need not be complete.

By UniProt entry, the sequences of proteins in these tests, tags left out. Residues count along the entry.
UniProt P25322: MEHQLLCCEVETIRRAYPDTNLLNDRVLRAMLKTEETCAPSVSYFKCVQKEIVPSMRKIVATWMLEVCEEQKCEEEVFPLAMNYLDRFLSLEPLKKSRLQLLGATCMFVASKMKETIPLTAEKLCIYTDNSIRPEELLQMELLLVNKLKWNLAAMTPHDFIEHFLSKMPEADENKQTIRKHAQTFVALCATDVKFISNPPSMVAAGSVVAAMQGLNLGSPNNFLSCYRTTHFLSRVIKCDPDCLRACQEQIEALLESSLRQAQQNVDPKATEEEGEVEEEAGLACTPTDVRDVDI
UniProt P08113, residues 22-802: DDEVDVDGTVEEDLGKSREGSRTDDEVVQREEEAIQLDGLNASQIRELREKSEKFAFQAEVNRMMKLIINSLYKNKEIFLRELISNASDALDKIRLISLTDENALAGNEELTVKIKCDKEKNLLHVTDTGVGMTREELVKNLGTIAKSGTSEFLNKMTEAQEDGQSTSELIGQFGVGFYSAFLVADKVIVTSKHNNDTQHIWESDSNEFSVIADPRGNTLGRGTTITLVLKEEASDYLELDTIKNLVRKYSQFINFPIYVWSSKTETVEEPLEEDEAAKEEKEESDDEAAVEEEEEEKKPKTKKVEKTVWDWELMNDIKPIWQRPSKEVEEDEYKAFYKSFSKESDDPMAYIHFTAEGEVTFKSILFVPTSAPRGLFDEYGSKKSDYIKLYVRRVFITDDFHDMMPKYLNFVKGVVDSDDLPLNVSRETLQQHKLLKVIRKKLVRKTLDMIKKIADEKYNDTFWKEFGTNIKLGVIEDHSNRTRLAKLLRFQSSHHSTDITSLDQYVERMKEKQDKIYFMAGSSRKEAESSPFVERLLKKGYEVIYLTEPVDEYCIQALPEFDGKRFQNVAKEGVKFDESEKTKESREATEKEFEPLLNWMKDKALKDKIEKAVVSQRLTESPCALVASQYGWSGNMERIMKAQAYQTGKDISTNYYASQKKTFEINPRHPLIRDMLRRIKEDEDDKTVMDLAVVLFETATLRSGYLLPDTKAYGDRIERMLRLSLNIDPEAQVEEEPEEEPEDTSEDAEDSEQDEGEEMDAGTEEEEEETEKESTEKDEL
UniProt P09405: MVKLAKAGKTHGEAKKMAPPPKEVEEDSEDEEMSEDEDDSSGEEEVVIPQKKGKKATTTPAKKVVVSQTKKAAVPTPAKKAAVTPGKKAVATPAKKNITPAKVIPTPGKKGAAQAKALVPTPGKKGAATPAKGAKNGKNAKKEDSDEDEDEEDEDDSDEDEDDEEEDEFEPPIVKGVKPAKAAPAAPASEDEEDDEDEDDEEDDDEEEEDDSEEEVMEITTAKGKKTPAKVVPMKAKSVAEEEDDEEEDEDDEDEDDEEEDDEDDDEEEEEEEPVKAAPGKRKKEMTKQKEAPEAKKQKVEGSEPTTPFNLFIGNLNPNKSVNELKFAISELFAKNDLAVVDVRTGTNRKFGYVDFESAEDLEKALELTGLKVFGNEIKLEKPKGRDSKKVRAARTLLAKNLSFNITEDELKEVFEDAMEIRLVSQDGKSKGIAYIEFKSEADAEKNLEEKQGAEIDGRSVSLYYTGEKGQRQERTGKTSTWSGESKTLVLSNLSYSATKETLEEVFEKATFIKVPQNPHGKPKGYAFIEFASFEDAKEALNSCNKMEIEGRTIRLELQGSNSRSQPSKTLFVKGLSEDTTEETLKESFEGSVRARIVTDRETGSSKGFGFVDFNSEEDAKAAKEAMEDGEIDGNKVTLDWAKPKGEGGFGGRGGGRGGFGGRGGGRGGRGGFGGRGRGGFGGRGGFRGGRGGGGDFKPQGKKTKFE

B1: Lin28 (protein, UniProt Q8K3Y3 1-209)
chain: MGSVSNQQFAGGCAKAAEKAPEEAPPDAARAADEPQLLHGAGICKWFNVRMGFGFLSMTARAGVALDPPVDVFVHQSKLHMEGFRSLKEGEAVEFTFKKSAKGLESIRVTGPGGVFCIGSERRPKGKNMQKRRSKGDRCYNCGGLDHHAKECKLPPQPKKCHFCQSINHMVASCPLKAQQGPSSQGKPAYFREEEEEIHSPALLPEAQN
modifications: biotinylated by APEX (biotin-phenol)

Columns and labels:
Cyclin D1-APEX [1] = target: Cyclin D1-APEX (UniProt P25322); assay: proximity labelling
Cyclin D1-APEX [2] = target: Cyclin D1-APEX (UniProt P25322); assay: proximity labelling; remark: listed apart in the source

Row | Molecule | binding (Cyclin D1-APEX [1]) | binding (Cyclin D1-APEX [2])
1 | Hsp90b1 (from UniProt P08113 22-802) | binds | –
2 | nucleolin (from UniProt P09405 1-707) | binds | –
3 | B1 | – | binds
